Data taken from the supplement of paper PMC10849652.
The other results are listed elsewhere or left out.

Amino acid sequences for entries named in this document (tags omitted). A change or cut given only in a name is not applied to a line headed by its entry.
UniProt Q3SY69: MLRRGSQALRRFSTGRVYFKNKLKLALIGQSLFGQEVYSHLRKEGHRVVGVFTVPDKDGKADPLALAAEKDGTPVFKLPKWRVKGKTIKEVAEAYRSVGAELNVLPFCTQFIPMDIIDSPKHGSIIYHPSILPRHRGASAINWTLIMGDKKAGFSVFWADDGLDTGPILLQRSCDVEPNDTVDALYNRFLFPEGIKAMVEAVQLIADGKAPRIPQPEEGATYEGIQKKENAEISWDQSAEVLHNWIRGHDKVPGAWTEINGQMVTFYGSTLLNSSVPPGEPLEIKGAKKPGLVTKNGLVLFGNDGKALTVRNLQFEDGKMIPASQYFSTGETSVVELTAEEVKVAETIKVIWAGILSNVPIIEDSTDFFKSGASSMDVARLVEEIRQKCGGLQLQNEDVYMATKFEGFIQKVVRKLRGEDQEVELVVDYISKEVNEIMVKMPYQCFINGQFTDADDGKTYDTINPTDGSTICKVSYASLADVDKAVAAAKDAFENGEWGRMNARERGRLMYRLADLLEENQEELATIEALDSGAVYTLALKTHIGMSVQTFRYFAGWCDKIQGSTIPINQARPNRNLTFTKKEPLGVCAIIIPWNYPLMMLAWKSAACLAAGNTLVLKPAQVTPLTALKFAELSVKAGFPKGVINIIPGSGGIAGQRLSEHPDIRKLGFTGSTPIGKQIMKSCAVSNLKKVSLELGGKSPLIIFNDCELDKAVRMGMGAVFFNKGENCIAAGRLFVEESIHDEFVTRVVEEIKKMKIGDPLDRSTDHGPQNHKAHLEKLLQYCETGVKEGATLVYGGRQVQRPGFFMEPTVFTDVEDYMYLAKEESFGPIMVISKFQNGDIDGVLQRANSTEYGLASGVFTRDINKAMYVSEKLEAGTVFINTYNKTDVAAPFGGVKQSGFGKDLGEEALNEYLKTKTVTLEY
UniProt Q9Y3D8, whole entry, looked up: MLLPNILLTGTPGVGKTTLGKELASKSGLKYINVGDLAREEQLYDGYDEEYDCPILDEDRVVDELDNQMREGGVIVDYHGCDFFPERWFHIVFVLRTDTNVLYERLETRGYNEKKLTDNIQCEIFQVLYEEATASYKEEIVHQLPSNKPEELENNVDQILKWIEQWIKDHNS
UniProt Q9ULX6: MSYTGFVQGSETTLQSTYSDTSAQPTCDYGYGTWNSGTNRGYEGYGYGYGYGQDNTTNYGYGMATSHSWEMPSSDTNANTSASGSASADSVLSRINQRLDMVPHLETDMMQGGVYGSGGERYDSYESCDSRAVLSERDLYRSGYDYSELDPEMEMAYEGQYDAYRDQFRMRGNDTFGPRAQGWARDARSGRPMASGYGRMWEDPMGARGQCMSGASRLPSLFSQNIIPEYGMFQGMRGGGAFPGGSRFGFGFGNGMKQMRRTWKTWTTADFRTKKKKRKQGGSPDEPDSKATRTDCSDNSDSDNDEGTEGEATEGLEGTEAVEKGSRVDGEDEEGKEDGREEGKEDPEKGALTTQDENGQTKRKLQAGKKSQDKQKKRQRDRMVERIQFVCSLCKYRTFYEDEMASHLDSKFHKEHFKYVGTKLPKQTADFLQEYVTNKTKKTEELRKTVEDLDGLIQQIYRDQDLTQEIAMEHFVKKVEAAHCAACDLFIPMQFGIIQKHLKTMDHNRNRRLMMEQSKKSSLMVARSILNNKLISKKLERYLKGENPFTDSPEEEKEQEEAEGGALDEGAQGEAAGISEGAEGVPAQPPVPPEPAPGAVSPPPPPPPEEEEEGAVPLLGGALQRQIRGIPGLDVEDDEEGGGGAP
UniProt P23526: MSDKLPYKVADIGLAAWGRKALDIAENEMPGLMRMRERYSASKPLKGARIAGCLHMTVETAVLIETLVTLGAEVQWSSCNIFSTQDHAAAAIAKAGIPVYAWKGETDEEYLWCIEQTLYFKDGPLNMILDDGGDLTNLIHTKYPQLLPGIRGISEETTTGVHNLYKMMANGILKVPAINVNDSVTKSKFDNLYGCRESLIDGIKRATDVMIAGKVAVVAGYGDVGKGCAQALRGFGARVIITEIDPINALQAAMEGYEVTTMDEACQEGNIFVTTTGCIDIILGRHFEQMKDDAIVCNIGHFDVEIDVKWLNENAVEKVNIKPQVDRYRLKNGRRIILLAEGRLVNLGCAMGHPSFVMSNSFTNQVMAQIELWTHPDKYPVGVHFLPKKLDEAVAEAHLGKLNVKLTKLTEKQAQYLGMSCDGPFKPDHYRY
UniProt Q92667: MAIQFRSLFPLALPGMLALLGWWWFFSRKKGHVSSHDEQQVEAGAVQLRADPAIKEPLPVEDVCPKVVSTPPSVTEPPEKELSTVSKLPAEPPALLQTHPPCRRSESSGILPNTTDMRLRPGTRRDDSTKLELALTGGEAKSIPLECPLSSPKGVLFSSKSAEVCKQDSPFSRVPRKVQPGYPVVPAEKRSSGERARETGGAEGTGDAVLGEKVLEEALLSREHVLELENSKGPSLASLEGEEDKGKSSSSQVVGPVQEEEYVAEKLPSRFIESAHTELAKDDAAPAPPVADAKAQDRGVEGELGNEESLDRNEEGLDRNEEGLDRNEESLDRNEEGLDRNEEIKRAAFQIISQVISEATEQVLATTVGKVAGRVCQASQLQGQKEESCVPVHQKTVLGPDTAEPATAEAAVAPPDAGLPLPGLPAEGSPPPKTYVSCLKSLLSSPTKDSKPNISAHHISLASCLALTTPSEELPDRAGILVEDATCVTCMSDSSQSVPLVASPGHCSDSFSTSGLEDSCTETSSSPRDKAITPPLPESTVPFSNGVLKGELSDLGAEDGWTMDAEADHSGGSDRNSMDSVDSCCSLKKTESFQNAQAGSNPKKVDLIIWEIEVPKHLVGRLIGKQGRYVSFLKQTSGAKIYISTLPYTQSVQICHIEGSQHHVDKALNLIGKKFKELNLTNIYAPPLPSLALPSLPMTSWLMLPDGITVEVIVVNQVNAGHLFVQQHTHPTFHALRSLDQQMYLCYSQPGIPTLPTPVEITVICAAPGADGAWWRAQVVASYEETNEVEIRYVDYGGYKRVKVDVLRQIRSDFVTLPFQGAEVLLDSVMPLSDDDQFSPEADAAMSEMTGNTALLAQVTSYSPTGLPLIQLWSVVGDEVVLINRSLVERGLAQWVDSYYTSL
UniProt P09972: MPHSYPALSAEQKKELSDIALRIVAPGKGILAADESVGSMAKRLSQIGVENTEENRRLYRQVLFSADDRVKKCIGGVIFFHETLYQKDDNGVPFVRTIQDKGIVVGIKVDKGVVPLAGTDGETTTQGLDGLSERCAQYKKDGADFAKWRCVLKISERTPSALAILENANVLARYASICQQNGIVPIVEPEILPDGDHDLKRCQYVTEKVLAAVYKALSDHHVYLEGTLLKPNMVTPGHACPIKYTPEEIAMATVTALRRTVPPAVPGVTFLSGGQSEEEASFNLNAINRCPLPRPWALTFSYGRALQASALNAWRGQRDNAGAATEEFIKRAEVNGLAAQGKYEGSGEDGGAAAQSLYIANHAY
UniProt Q96F25: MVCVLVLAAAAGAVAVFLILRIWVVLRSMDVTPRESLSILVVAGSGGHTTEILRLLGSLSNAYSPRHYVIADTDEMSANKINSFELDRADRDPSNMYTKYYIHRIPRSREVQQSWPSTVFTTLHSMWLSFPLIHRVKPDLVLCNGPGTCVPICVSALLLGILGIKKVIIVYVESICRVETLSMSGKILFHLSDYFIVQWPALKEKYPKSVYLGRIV
UniProt Q9UIJ7: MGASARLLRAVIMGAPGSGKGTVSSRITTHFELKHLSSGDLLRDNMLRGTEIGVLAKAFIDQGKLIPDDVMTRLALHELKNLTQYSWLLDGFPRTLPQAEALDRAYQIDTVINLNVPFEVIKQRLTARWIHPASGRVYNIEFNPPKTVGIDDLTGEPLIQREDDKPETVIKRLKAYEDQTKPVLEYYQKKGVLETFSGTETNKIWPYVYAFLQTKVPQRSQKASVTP
UniProt Q9NUQ2: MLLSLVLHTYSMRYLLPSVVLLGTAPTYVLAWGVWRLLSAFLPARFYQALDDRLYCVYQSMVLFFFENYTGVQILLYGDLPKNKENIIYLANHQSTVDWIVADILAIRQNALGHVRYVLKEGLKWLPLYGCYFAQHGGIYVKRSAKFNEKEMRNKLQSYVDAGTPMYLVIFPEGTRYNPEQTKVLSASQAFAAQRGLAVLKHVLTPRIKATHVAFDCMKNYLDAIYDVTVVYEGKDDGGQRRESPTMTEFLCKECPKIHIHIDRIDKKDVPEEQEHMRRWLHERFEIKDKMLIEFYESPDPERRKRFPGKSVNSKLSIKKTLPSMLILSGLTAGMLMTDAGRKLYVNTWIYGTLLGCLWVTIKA
UniProt P55263: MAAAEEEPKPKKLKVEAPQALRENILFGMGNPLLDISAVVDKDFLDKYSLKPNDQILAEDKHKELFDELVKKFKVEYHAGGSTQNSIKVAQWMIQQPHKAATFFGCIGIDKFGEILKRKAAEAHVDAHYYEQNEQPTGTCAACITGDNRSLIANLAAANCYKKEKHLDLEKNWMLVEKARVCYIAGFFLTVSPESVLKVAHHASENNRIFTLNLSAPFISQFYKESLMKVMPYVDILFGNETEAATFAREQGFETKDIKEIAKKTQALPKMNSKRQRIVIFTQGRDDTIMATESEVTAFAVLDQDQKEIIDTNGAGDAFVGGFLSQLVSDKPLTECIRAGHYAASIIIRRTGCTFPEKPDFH
UniProt Q9NRZ7: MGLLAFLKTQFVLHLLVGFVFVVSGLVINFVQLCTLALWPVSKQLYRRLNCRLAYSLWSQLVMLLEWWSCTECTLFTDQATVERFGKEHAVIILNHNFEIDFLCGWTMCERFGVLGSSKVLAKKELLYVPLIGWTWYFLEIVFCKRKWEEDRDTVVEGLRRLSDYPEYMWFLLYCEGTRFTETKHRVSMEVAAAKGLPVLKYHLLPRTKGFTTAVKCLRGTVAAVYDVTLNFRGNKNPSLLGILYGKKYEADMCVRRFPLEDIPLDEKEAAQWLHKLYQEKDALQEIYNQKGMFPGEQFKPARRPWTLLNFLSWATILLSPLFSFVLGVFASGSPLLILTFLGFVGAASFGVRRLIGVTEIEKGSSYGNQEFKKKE
UniProt Q8IZ83: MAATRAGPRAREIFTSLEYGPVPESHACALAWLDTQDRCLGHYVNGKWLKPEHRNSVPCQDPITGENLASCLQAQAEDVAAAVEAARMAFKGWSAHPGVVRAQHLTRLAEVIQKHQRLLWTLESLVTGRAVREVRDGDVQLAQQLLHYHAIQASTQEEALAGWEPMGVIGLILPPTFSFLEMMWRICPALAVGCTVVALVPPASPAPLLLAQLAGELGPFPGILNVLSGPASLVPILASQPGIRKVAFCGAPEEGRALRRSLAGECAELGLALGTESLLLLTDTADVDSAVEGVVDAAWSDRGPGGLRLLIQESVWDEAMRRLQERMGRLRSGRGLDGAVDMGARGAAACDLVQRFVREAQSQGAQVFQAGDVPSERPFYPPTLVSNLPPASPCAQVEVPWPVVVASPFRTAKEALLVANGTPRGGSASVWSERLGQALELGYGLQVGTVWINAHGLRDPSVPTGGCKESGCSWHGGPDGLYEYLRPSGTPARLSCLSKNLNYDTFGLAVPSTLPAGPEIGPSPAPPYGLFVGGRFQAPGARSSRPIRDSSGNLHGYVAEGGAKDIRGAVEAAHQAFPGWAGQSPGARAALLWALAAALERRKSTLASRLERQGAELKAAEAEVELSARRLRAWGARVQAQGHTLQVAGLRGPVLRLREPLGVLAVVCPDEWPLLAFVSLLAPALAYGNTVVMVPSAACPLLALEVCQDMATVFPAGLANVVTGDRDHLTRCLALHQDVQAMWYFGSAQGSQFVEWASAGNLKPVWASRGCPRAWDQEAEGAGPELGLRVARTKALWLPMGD
UniProt Q3KRA9: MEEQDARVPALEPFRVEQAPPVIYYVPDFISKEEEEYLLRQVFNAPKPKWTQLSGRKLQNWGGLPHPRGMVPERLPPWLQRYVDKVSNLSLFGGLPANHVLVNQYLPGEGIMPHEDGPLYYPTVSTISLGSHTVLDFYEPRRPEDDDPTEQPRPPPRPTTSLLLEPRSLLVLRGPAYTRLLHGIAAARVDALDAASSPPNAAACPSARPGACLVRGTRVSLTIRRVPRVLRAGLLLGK
UniProt Q9BRR6: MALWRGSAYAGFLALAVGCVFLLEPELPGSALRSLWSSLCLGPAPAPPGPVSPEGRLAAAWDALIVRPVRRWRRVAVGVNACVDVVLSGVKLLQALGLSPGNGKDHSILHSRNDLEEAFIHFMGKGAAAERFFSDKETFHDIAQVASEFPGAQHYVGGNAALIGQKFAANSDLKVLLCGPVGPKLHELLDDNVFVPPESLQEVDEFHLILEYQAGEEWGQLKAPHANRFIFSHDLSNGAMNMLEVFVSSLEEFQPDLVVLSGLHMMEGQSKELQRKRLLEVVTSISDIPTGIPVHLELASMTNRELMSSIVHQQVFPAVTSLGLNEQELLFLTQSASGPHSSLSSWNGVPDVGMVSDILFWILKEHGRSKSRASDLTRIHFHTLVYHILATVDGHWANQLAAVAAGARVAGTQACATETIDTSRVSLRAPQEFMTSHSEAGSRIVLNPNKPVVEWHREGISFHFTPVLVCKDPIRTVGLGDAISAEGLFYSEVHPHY

Experiments:
Assay in all cases: log2 fold change, soluble protein after heating vs DMSO (PISA); higher = thermal stabilisation; K562 cells, 10 uM, 30 min; active = over 0.2 and 3.5 SD of the protein, either way, in both replicates (recomputed)
bafetinib = compound: Cc1ccc(NC(=O)c2ccc(CN3CC[C@H](N(C)C)C3)c(C(F)(F)F)c2)cc1Nc1nccc(-c2cncnc2)n1 [bafetinib]
Procedure, shortened: (§1)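 K562 cells at 2×10^6 cells/mL were treated for 30 min with 10 μM compound, and aliquots were heated for 3 min over 48°C-58°C before pooling. Extraction used PBS with 0.5% NP-40 at 4°C, and soluble protein was the supernatant after 21,000xg for 90 min, measured by TMTpro 16plex LC-MS/MS with channel sums equalised. Thermal stability values, relative to control samples and from duplicates, are log2 fold changes.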

[1] = compound: Cc1cccc(CC(=O)N2CCc3c2ccc(-c2cn(C)c4ncnc(N)c24)c3F)n1
Procedure, shortened: as §1

nilotinib = compound: Cc1cn(-c2cc(NC(=O)c3ccc(C)c(Nc4nccc(-c5cccnc5)n4)c3)cc(C(F)(F)F)c2)cn1 [nilotinib]
Procedure, shortened: as §1

[2] = compound: Cc1nc(Nc2n[nH]c3c2CN(C(=O)N[C@H](CN(C)C)c2ccccc2)C3(C)C)c2sccc2n1
Procedure, shortened: as §1

dasatinib = compound: Cc1nc(Nc2ncc(C(=O)Nc3c(C)cccc3Cl)s2)cc(N2CCN(CCO)CC2)n1 [dasatinib]
Procedure, shortened: as §1

[3] = compound: Cc1ncc(-c2ccnc(Nc3ccc(S(C)(=O)=O)cc3)n2)n1C(C)C
Procedure, shortened: as §1

[4] = compound: Cn1cc(-c2ccc3c(c2)CCN3C(=O)Cc2cccc(C(F)(F)F)c2)c2c(N)ncnc21
Procedure, shortened: as §1

[5] = compound: Cn1cc(-c2ccc3nnc(C(F)(F)c4ccc5ncccc5c4)n3n2)cn1
Procedure, shortened: as §1

tipifarnib = compound: Cn1cncc1[C@@](N)(c1ccc(Cl)cc1)c1ccc2c(c1)c(-c1cccc(Cl)c1)cc(=O)n2C [tipifarnib]
Procedure, shortened: as §1

mubritinib = compound: FC(F)(F)c1ccc(/C=C/c2nc(COc3ccc(CCCCn4ccnn4)cc3)co2)cc1 [mubritinib]
Procedure, shortened: as §1

Row | Target | log2 fold change (bafetinib) | log2 fold change [1] | log2 fold change (nilotinib) | log2 fold change [2] | log2 fold change (dasatinib) | log2 fold change [3] | log2 fold change [4] | log2 fold change [5] | log2 fold change (tipifarnib) | log2 fold change (mubritinib)
1 | ALDH1L2 (UniProt Q3SY69) | inactive: -0.083 | inactive: 0 | inactive: -0.104 | inactive: -0.136 | inactive: -0.117 | inactive: -0.019 | inactive: 0.045 | inactive: 0.109 | inactive: -0.025 | inactive: -0.03
2 | AKR1B1 (UniProt P15121) | inactive: -0.129 | inactive: 0.002 | inactive: 0.005 | inactive: -0.067 | inactive: 0.042 | inactive: 0.04 | inactive: 0.021 | inactive: -0.013 | inactive: -0.157 | inactive: 0.019
3 | ALG5 (UniProt Q9Y673) | inactive: 0.021 | inactive: 0.067 | inactive: 0.009 | inactive: -0.123 | inactive: -0.045 | inactive: -0.121 | inactive: 0.088 | inactive: 0.059 | inactive: -0.079 | inactive: -0.055
4 | AGO4 (UniProt Q9HCK5) | inactive: 0.015 | inactive: -0.119 | inactive: -0.061 | inactive: 0.077 | inactive: 0.045 | inactive: 0.086 | inactive: -0.037 | inactive: -0.11 | inactive: -0.024 | inactive: -0.025
5 | AK6 (UniProt Q9Y3D8) | inactive: 0.021 | inactive: -0.018 | inactive: -0.141 | inactive: -0.143 | inactive: -0.288 | inactive: -0.015 | inactive: 0 | inactive: 0.025 | inactive: -0.144 | inactive: -0.114
6 | ALG2 (UniProt Q9H553) | inactive: -0.085 | inactive: -0.045 | inactive: -0.008 | inactive: 0.003 | inactive: -0.011 | inactive: -0.006 | inactive: 0.016 | inactive: 0.056 | inactive: 0.003 | inactive: 0.025
7 | AKAP8L (UniProt Q9ULX6) | inactive: -0.078 | inactive: -0.039 | inactive: 0.044 | inactive: -0.02 | inactive: -0.161 | inactive: -0.052 | inactive: -0.036 | inactive: -0.14 | inactive: 0.039 | inactive: 0.003
8 | AHCY (UniProt P23526) | inactive: 0.016 | inactive: -0.015 | inactive: 0.01 | inactive: 0.012 | inactive: 0.054 | inactive: -0.012 | inactive: 0.031 | inactive: -0.01 | inactive: -0.008 | inactive: 0.024
9 | AKAP1 (UniProt Q92667) | inactive: 0.021 | inactive: 0.06 | inactive: 0.031 | inactive: -0.217 | inactive: 0.014 | inactive: -0.013 | inactive: -0.006 | inactive: -0.033 | inactive: 0.042 | inactive: -0.074
10 | ALDOC (UniProt J3QKP5) | inactive: -0.658 | inactive: -0.619 | inactive: -0.054 | inactive: 0.123 | inactive: 0.055 | inactive: -0.033 | inactive: 0.015 | inactive: 0.095 | inactive: 0.174 | inactive: -0.105
11 | ALDOC (UniProt P09972) | inactive: -0.036 | inactive: -0.023 | inactive: -0.006 | inactive: 0.013 | inactive: 0.011 | inactive: 0.001 | inactive: 0.025 | inactive: -0.009 | inactive: -0.038 | inactive: 0.048
12 | ALG14 (UniProt Q96F25) | inactive: -0.092 | active: 0.461 | inactive: 0.061 | inactive: 0.026 | inactive: 0.003 | inactive: -0.033 | inactive: 0.014 | inactive: 0.126 | inactive: -0.214 | inactive: 0.003
13 | AK3 (UniProt Q9UIJ7) | inactive: -0.044 | inactive: -0.036 | inactive: 0.017 | inactive: 0.017 | inactive: 0.019 | inactive: -0.011 | inactive: 0.019 | inactive: -0.009 | inactive: 0.007 | inactive: 0.053
14 | AGPAT5 (UniProt Q9NUQ2) | inactive: -0.133 | inactive: 0.021 | inactive: 0.008 | inactive: 0.04 | inactive: -0.058 | inactive: -0.035 | inactive: 0.09 | inactive: 0.045 | inactive: 0.02 | inactive: 0.014
15 | ADK (UniProt P55263) | inactive: 0.201 | inactive: 0 | inactive: 0.122 | inactive: 0.208 | active: 0.387 | inactive: 0.07 | inactive: 0.006 | inactive: 0.241 | inactive: 0.291 | inactive: 0.037
16 | AGPAT3 isoform 3 (UniProt Q9NRZ7) | inactive: -0.057 | inactive: 0.04 | inactive: -0.012 | inactive: 0.004 | inactive: -0.092 | inactive: -0.007 | inactive: 0.033 | inactive: 0.018 | inactive: -0.025 | inactive: 0.062
17 | AKAP12 (UniProt Q02952) | inactive: -0.225 | inactive: -0.148 | inactive: 0.131 | inactive: -0.041 | inactive: -0.005 | inactive: 0.102 | inactive: 0.033 | inactive: -0.063 | inactive: 0.017 | inactive: 0.069
18 | ALDH16A1 (UniProt Q8IZ83) | inactive: -0.018 | inactive: -0.043 | inactive: -0.038 | inactive: 0.001 | inactive: -0.031 | inactive: -0.008 | inactive: 0.057 | inactive: 0.014 | inactive: -0.013 | inactive: 0.021
19 | AIF1L isoform 2 (UniProt Q9BQI0) | inactive: 0.026 | inactive: -0.004 | inactive: -0.009 | inactive: -0.13 | inactive: -0.014 | inactive: 0.132 | inactive: 0.031 | inactive: -0.059 | inactive: -0.028 | inactive: 0.138
20 | AGK (UniProt Q53H12) | inactive: -0.124 | inactive: -0.011 | inactive: 0.007 | inactive: -0.008 | inactive: 0.032 | inactive: -0.014 | inactive: 0.016 | inactive: 0.026 | inactive: 0.024 | inactive: 0.026
21 | ALKBH6 isoform 2 (UniProt Q3KRA9) | inactive: -0.095 | inactive: -0.009 | inactive: -0.011 | inactive: -0.009 | inactive: 0.087 | inactive: -0.042 | inactive: -0.027 | inactive: 0.002 | inactive: 0.099 | inactive: -0.042
22 | ANAPC10 (UniProt Q9UM13) | inactive: -0.01 | inactive: 0.088 | inactive: 0.002 | inactive: -0.026 | inactive: 0.007 | inactive: -0.011 | inactive: -0.058 | inactive: -0.012 | inactive: 0.03 | inactive: 0.027
23 | ADD3 (UniProt Q9UEY8) | inactive: 0.008 | inactive: -0.008 | inactive: 0.031 | inactive: -0.004 | inactive: 0.072 | inactive: -0.096 | inactive: 0.028 | inactive: -0.016 | inactive: 0.009 | inactive: 0.038
24 | ADPGK (UniProt Q9BRR6) | inactive: -0.023 | inactive: 0.024 | inactive: -0.036 | inactive: 0.062 | inactive: -0.025 | inactive: -0.044 | inactive: -0.01 | inactive: -0.005 | inactive: 0.062 | inactive: 0.022
25 | AIMP1 isoform 2 (UniProt Q12904) | inactive: 0.168 | inactive: -0.006 | inactive: -0.071 | inactive: 0.019 | inactive: 0.044 | inactive: 0.064 | inactive: -0.158 | inactive: -0.229 | inactive: -0.041 | inactive: -0.104

Fetched one by one from the entries so far:
Row | Target | log2 fold change (bafetinib) | log2 fold change [1] | log2 fold change (nilotinib) | log2 fold change [2] | log2 fold change (dasatinib) | log2 fold change [3] | log2 fold change [4] | log2 fold change [5] | log2 fold change (tipifarnib) | log2 fold change (mubritinib)
14 | AGPAT5 (UniProt Q9NUQ2) | inactive: -0.133 | inactive: 0.021 | inactive: 0.008 | inactive: 0.04 | inactive: -0.058 | inactive: -0.035 | inactive: 0.09 | inactive: 0.045 | inactive: 0.02 | inactive: 0.014
16 | AGPAT3 isoform 3 (UniProt Q9NRZ7) | inactive: -0.057 | inactive: 0.04 | inactive: -0.012 | inactive: 0.004 | inactive: -0.092 | inactive: -0.007 | inactive: 0.033 | inactive: 0.018 | inactive: -0.025 | inactive: 0.062
